Patent publication US20110028345A1, “METHODS TO CHARACTERIZE CELL REPROGRAMMING AND USES THEREOF” (CORNING INCORPORATED, priority 2009, published 2011)
At least one compound was matched to its structure with a doubt left.

Tested on: undifferentiated and differentiated ReN cells
Test: DMR marker panel profiling, differentiated versus undifferentiated ReN cells
Assay type: cell-based, human
Conditions: markers at 10 μM (dopamine and glucagons like peptide 128 μM); FIG. 9-11
Experimental: The confluency for all cells at the time of assays was ˜95% to 100%.
For biosensor cellular assays, compound solutions were made by diluting the stored concentrated solutions with the HBSS (1× Hanks balanced salt solution, plus 20 mM Hepes, pH 7.1), and transferred into a 384 well polypropylene compound storage plate to prepare a compound source plate. […] Afterwards, a 2 to 10 min continuous recording was carried out to establish a baseline, and to ensure that the cells reached a steady state.

Structure (SMILES) | specificity of the marker DMR signal for the differentiation state
CC(=O)OCC[N+](C)(C)C [acetylcholine] | specific to the differentiated ReN cells
CC(C)[C@H](NC(=O)[C@@H]1CSSC[C@H](NC(=O)[C@H](CC(=O)O)NC(=O)[C@@H]2CCCN2C(=O)[C@@H](NC(=O)[C@@H](N)CCC(=O)O)[C@@H](C)O)C(=O)N[C@@H](Cc2ccccc2)C(=O)N[C@@H](Cc2c[nH]c3ccccc23)C(=O)N[C@@H](CCCCN)C(=O)N[C@@H](Cc2ccc(O)cc2)C(=O)N1)C(=O)O [urotensin II] | specific to the undifferentiated cells
